Sequences and labels used below:
T1: GST-Bim1^185–344 (S. cerevisiae) (UniProt P40013)
T1 sequence: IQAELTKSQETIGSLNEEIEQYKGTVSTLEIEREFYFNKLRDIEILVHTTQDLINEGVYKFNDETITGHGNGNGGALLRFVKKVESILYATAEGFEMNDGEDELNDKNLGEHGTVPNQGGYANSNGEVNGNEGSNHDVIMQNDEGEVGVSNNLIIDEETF

B1: Duo1^ΔC(R223Stop)-6xFlag (domain or fragment, UniProt P53168 1-222)
chain: MSEQSQLDDSTIDKLIPQIFNEMRSNLNNTTNKFPKSTGGGASDNISANSNSIRSFNSITTQSLLKESESLDKITAMIKNVTAALKNNLPVYVNQVHEVCKSTNSILDSWINIHSQAGYIHKLMSDQTYLKLINDRLHNENVNTNDEDGSTLHNVIALKKKEILDLRQKLENRKGEKDAAPAKPPNQGLNPRYGVQSGRRPVPSAGISNNGRVRKTHVPASK
B2: Duo1^ΔSxIP-6xFlag (protein, UniProt P53168)
chain: MSEQSQLDDSTIDKLIPQIFNEMRSNLNNTTNKFPKSTGGGASDNISANSNSIRSFNSITTQSLLKESESLDKITAMIKNVTAALKNNLPVYVNQVHEVCKSTNSILDSWINIHSQAGYIHKLMSDQTYLKLINDRLHNENVNTNDEDGSTLHNVIALKKKEILDLRQKLENRKGEKDAAPAKPPNQGLNPRYGVQSGRRPVPSAGISNNGRVRKTHVPASKRPRVTNRWTKPTASSSRKMFR
B3: Duo1 subunit within recombinant Dam1^WTc (natural protein, S. cerevisiae, UniProt P53168 1-247, looked up)
chain: MSEQSQLDDSTIDKLIPQIFNEMRSNLNNTTNKFPKSTGGGASDNISANSNSIRSFNSITTQSLLKESESLDKITAMIKNVTAALKNNLPVYVNQVHEVCKSTNSILDSWINIHSQAGYIHKLMSDQTYLKLINDRLHNENVNTNDEDGSTLHNVIALKKKEILDLRQKLENRKGEKDAAPAKPPNQGLNPRYGVQSGRRPVPSAGISNNGRVRKTHVPASKRPSGIPRVTNRWTKPTASSSRKMFR
notes: Duo1, subunit of the Dam1 complex, S. cerevisiae; Stood in the cross-linking experiment as a subunit of m1; source: E. coli, purified as part of Dam1c

Results are given in words; binding and its absence hold for the method and conditions named. In cells and extracts the contact can be indirect. Some entries that bind do so weakly or less than the wild type. Where a sequence is shown, tags or fusion partners need not be part of it.

The target of the test is T1, GST-Bim1^185–344 (S. cerevisiae). The experiment in a line: pull-down; GST-Bim1 185-344 on glutathione sepharose beads, soluble yeast cell lysates (2 µg/µl), 4°C 15-120 min, washes with 300 mM NaCl; Duo1-6xFlag by Western blot; also lysates of mps1-737 cells at 30 or 37°C (reduced at 37°C), mps1-as1 cells with 1NM-PP1 (similar effect) and pGal-Mps1 cells in galactose (increased); only the target purified. (In general: Immunoblotting shows a protein as a band on a membrane.)
Consider B1, for which the binding result is “no binding”.
With B2, the binding result is recorded as “no binding”.
As to B3, the binding entry is recorded as “binds”.
